Results are given in words; binding and its absence hold for the method and conditions named. Some results given as binding are weak or reduced against the parent protein; the word gives no strength.
B1: PR301286 (antibody, human IgG1, kappa, V domains shown)
VH: QVQLVESGGGVVQPGKSLRLSCAASGFTFSSYGMHWVRQAPGKGLEWVAVIWIDGSNRYYAASVKGRFTISRDNSKNTLYLQMNSLRAEDTAVYYCTRGYGDYAYVMDVWGQGASVTVSS
VL: DIVMTQSPLSLPVTPGEPASISCRSSQSLLPGNGYNYLDWYLQKPGQSPQLLIYLGSNRASGVPDRFSGSGSGTDFTLKISRVEAEDVGIYYCMQALQSPLTFGGGTKVEIKR
B2: PR300659 (antibody, human IgG1, kappa, V domains shown)
VH: QVQLVESGGGVVQPGRSLRLSCAASGFIFSSYDIYWVRQAPGKGLEWVAVIWHDGSNKYYADSVKGRFTISRDNSKNTVYLQMNSLRAEDTAVYYCARDTHSYGSRIYYDYNYGMDVWGQGTTVTVSS
VL: DIQMTQSPSSLSASVGDRVSITCRASQSISSYLNWYQQKPGKAPKLLIYAASSLQSGVPSRFSGSGSGADFTLTISSLQPEDFATYYCQQTYSPPFTFGPGTKVDIKR
B3: PR301285 (antibody, human IgG1, kappa, V domains shown)
VH: QVQLQESGPGLVKPSETLSLTCTVSGGSMISYYWSWLRQPPGKGLEWIGYIYYSGNTNYNPSLKSRITIAVDTSKNQFSLKLNSVTAADTAVYYCARERELHPYYFDYWGQGTLVTVSS
VL: DIQLTQSPSFLSASVGDRVTITCRASQGIDNYLAWYQQKPGKAPKVLIYAASTLQSGVPSRFSGSGSGTEFTLTISSLQPEDFATYYCQQLNSYPLTFGGGTKVEIKR
B4: PR300670 (antibody, human IgG1, kappa, V domains shown)
VH: QVQLVESGGGVVQPGRSLRLSCVASGFTFSTYGIHWVRQAPGKGLDWVSVIWYDGSHKYYADSVQDRFTISRDNSKNTLYLQMNSLRAEDTAVYYCAREGMITMVRGVIIDYQYHGMDVWGQGTTVTVSS
VL: DIQMTQSPSTLSASVGDRVTITCRASQSIGRRLAWYQQKPGKAPKLLIYKASSLESGVPSRFSGSGSGTEFTLTISSPQPDDFATYYCQQYHSYSYTFGQGTKLEIKR
B5: PR301289 (antibody, human IgG1, kappa, V domains shown)
VH: QVQLVQSGAEVKKPGASVKVSCRASGYTFTSYDINWVRQATGQGLEWMGWMNPHSGDTGYAQNFQGRVTMTWNTSISTAYMELSSLRSEDTAVYYCARRRVGVYYYGMDVWGQGTTVTVSS
VL: ENVLTQSPGTLSLSPGERATLSCRASQSVSSSYFGWYQQKPGQAPRLLIYGASSRATGIPDRFSGSGSGTDFTLTISRLEPEDFAVYYCQQYGSSPITFGQGTRLEIKR

What follows are binders tested against cynomolgus monkey Siglec-15-his protein (Acrobiosystems, Cat #: SG5-C52H6) (cynomolgus monkey) (assay: ELISA on coated cynomolgus monkey Siglec-15-his, goat anti-human IgG-HRP, OD450).

binding, binds:
B1
B2
B3
B4
B5

What follows are binders tested against cynomolgus monkey Siglec-15-his protein (Acrobiosystems, Cat #: SG5-C52H6) (cynomolgus monkey) (assay: ELISA, coated cynomolgus monkey Siglec-15-his).

binding, binds:
B1
B2
B3
B4
B5

— patent US20260070974A1
